These are yes or no findings as the source states them, for the method shown. Binding seen in cells or lysates may run through a third protein. Some binding calls cover weakened binding; strength is not graded here.
Biological target: SMAD3 (mouse (endogenous in RAW264.7)) (UniProt Q8BUN5)
Assay: co-IP; 500 μg of cytosolic or nuclear proteins of RAW264.7 macrophages (TGF-β1 or PBS treatment) incubated overnight at 4°C with anti-SMAD3 or a homologous IgG, Protein A/G agarose beads 2 hours at 4°C; immunoblot with anti-SMAD3 or anti-STAT3

By UniProt entry, the sequences of proteins in these tests, tags left out.
UniProt Q8BUN5: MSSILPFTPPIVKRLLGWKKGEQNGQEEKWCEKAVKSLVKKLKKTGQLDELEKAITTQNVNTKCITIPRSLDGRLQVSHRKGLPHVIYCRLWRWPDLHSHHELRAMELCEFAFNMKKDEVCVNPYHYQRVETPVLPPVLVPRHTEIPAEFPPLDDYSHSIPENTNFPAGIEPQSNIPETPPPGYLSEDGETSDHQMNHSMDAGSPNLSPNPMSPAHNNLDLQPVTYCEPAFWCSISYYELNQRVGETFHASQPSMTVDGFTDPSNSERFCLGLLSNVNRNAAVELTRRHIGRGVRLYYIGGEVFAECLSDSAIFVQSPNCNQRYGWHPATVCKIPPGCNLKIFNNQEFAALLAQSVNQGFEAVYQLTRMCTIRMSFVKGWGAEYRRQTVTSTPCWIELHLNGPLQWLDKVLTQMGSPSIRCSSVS
UniProt P42227: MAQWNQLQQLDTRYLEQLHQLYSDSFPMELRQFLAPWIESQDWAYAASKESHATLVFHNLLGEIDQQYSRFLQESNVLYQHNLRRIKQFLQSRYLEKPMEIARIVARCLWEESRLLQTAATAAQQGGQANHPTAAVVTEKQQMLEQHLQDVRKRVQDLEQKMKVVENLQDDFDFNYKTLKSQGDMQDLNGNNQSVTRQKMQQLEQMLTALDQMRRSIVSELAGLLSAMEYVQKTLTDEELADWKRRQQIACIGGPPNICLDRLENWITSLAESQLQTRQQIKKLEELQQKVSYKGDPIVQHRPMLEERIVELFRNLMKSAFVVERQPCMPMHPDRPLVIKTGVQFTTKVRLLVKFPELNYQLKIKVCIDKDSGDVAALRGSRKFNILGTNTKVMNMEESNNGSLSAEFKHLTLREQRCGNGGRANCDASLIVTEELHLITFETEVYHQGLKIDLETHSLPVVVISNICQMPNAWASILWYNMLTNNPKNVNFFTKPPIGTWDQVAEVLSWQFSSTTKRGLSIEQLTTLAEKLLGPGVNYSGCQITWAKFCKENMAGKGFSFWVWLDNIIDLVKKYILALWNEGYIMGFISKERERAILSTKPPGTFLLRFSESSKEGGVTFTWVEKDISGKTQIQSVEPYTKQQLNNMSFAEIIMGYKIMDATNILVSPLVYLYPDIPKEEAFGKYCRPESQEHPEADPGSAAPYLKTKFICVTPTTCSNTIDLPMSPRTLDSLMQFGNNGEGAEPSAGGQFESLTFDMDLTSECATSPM

For STAT3 (from UniProt P42227 1-770), the binding was “binds”.

Source: publication PMC11128204
